Experimental data as given in patent US20050058640A1 (BAXTER INTERNATIONAL, published 2005).
These are yes or no findings as the source states them, for the method shown. Binding can be weak; no strength is given.

By UniProt entry, the sequences of proteins in these tests, tags left out. Where a name states a change or a piece, a line headed by the entry shows the natural chain unless it says otherwise.
UniProt P00740: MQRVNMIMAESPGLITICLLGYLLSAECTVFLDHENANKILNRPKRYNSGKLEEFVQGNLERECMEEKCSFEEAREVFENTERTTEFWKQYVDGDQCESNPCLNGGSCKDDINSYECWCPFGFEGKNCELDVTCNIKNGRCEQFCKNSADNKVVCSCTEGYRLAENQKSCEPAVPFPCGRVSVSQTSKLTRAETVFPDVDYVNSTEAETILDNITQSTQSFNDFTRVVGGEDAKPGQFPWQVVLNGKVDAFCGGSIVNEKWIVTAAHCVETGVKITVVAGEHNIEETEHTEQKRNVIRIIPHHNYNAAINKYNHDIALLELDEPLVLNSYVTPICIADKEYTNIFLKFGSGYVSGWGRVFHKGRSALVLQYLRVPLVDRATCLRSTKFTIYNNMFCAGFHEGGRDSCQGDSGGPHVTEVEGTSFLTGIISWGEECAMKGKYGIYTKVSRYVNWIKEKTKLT
UniProt P00741: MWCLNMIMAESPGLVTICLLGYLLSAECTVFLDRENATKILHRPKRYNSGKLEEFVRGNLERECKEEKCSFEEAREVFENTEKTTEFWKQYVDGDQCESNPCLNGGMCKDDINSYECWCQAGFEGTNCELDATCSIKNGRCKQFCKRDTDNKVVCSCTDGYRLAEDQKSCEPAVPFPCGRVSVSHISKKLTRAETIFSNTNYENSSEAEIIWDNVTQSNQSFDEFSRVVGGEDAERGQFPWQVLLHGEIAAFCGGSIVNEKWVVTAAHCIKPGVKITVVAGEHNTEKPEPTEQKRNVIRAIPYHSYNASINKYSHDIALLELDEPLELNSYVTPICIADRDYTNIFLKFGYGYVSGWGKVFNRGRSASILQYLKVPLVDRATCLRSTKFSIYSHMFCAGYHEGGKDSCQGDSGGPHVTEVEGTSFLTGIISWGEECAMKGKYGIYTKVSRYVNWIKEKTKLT

What was measured:
human factor IXa [1] = molecular target: T1, human factor IXa (human, UniProt P00740 47-191; P00740 227-461); assay: SPR (BIACORE)
human factor IXa [2] = molecular target: T1, human factor IXa; assay: ELISA and Western blot
bovine FIXa (bovine) = bovine FIXa (bovine) (UniProt P00741); assay: ELISA and Western blot
human factor IXa [3] = molecular target: T1, human factor IXa; assay: SPR (BIACORE), 3 mM EDTA
human factor IXa [4] = molecular target: T1, human factor IXa; assay: SPR (BIACORE), 5.56 nM FIXa, 5 mM CaCl2
human factor IXa [5] = molecular target: T1, human factor IXa; assay: SPR (BIACORE): antibody captured by anti-mouse Fc gamma (RAMFc) on a CM5 chip, 5.56 nM FIXa injected, 5 mM CaCl2; 5 min association, 12 min dissociation

binding (human factor IXa [1]): binds | binding (human factor IXa [2]): binds | binding (bovine FIXa (bovine)): binds | binding (human factor IXa [3]): binds | binding (human factor IXa [4]): binds | binding (human factor IXa [5]): binds
B1: antibody 224F3 (antibody, V domains shown)
VH: QVQMQQSGAELVKPGASVKLSCKASGYTFTSQDINWVRQRPEQGLEWIGWIFPGDGSTKYNEKLKGKATLTTDKSSSTAFMQLSRLTSEDSAVYFCARSAYYRYDGSYYYAMDYWGQGTSVTVSS
VL: QIVLTQSPAIMSASLGEEITLTCSASSSVSYMLWYQQKSGTSPKLLIYTTSNLASGVPSRFSGTGSGTFYSLTISSVEAEDAADYYCHQWSSYPRTFGGGTKLEIKR
